# Measurements reported in PubChem BioAssay AID590 (National Center for Advancing Translational Sciences (NCATS), 2007).
# In all, about 59,000 compounds went through this assay and about 6,500 (11%) were called active. Inconclusive means that the source gave no clear call. Such entries were picked first, then a sample of the others. Cut-off read from the data, not from the text of the source: active = max dye-equivalent concentration above about 10 nM; inconclusive = mostly about 1.1 nM to 9.6 nM; inactive = weaker than that.
# Test: qHTS Assay for Spectroscopic Profiling in A350 Spectral Region
# Details: Compound autofluorescence, 340/450 nm, Alexa 350 dye-equivalents; active compounds read high
row,Compound,max dye-equivalent concentration
1,O=C(CCNC(=O)Cn1ccc2ccccc2c1=O)NCCN1CCN(c2cccc(Cl)c2)CC1,active: 22 nM
2,CCC(NS(=O)(=O)c1c(C)[nH]c(=O)[nH]c1=O)C12CC3CC(CC(C3)C1)C2 (centres undefined),inconclusive: 1.8 nM
3,Cc1cc(C)cc(-c2nnc(SCC(=O)NCc3cccs3)o2)c1,inactive
4,CN(C(=O)C(Cl)Cl)c1ccc(OC(=O)c2ccco2)cc1,inconclusive: 1.8 nM
5,Cc1oc2c(CN3CCCC3)c(O)ccc2c(=O)c1-c1ccc(Cl)cc1,active: 730 nM
6,CCN(CCNC(=O)CN1CCN(Cc2ccc(Cl)cc2)C1=O)c1ccccc1,inactive
7,C=CCSc1nnc2n(-c3ccccc3OC)c(=O)c3c4c(sc3n12)CCC4,inactive
8,COCCCn1c(SCC(=O)NC2CCCCC2)nnc1-c1ccncc1,inconclusive: 1.2 nM
9,CN(C)CCOC(C)(c1ccccc1)c1ccccn1 (centres undefined),inactive
10,COc1cccc(NC2=CC(=O)CC(C)(C)C2)c1,inconclusive: 3.6 nM
11,Cc1cccc2cc(C(c3nnnn3Cc3ccccc3)N3CCN(c4ccccc4)CC3)c(=O)[nH]c12 (centres undefined),inconclusive: 1.1 nM
12,Cn1c(=O)c(CCc2ccccc2)nc2cncnc21,inactive
13,O=C(Nc1ccccc1C(=O)OCc1nnc(-c2ccccc2)o1)c1ccco1,inconclusive: 2.2 nM
14,COCC(C)OC(=O)C(C#N)c1nc2ccccc2nc1N1CCN(Cc2ccccc2)CC1 (centres undefined),inconclusive: 5.3 nM
15,COc1ccc(C(=O)CSc2nnc(-c3ccco3)n2CC2CCCO2)cc1 (centres undefined),inconclusive: 1.5 nM
16,COc1ccc(CNC(=O)CSc2ncn[nH]2)cc1,inconclusive: 1.9 nM
17,CC1CCN(C(=O)COC(=O)c2cc3ccccc3cc2O)CC1,inconclusive: 1.3 nM
18,CCC(=O)Nc1cc(=O)[nH]c2ncnn12,inconclusive: 1.7 nM
19,CSc1nnc2c3cc(C)ccc3n(Cc3ccccc3)c2n1,inconclusive: 1.4 nM
20,CCCCN(C(=O)NC(=O)Nc1ccccc1OC)S(C)(=O)=O,inactive
21,Cc1cc(NC(=O)Cc2cccs2)no1,inactive
22,CCn1c(SCC(N)=O)nnc1-c1ccc2[nH]c(C)c(C)c2c1,inconclusive: 2.8 nM
23,Cc1ccc(S(=O)(=O)N2CCN(C(=O)CN3CCOCC3)C2C(C)C)cc1 (centres undefined),inconclusive: 2.2 nM

row,Compound,max dye-equivalent concentration
1,CCc1nnc(NC(=O)Cn2nnc(-c3ccccc3F)n2)s1,inconclusive: 2.6 nM
2,CC(NC(=O)c1ccc(NS(C)(=O)=O)cc1)c1ccccc1 (centres undefined),inconclusive: 1.2 nM
3,O=[N+]([O-])c1cc(Cc2cc([N+](=O)[O-])c3cccnc3c2O)c(O)c2ncccc12,inconclusive: 1.5 nM
4,CCOC(=O)C1=C(O)C(=O)N(c2ccc(S(N)(=O)=O)cc2)C1c1ccccc1 (centres undefined),inconclusive: 3.9 nM
5,Cc1ccc2nc3c(cc(C(=O)NCCCn4ccnc4)n3C)c(=O)n2c1,inconclusive: 6.4 nM
6,COC(=O)c1ccccc1NC(=O)N1CSC[C@H]1C(=O)OC,inconclusive: 5.5 nM
7,Cc1nc2ccc(NC(=O)N3CCOCC3)cc2s1,inconclusive: 3.1 nM
8,CSc1ccccc1NC(=O)CN(c1cccc(C)c1)S(C)(=O)=O,inconclusive: 1.2 nM
9,CC(=O)Oc1oc(-c2ccccc2)nc1/C=N/c1ccccn1,inconclusive: 2.5 nM
10,COc1ccc(-c2nc3cnc(Oc4cccc(Cl)c4)nc3n(C[C@H]3CCCO3)c2=O)cc1,active: 13 nM
11,COc1ccc2cc(CN(CC3COCCO3)S(=O)(=O)c3ccc(Cl)cc3)c(=O)[nH]c2c1 (centres undefined),inconclusive: 2.2 nM
12,O=C(Nc1ccc2c(c1)OCO2)Nc1cnccn1,inconclusive: 1.3 nM
13,Cc1ccccc1C(OCC(O)CN1CCCCC1CCO)c1ccccc1 (centres undefined),inconclusive: 1.1 nM
14,CC(NC(=O)COc1ccccc1)C(c1ccccc1)N1CCN(C)CC1 (centres undefined),inactive
15,Cc1cc(C)nc(N2CCCC(C(=O)NCCc3ccccc3F)C2)n1 (centres undefined),inconclusive: 1.1 nM
16,c1ccc2c(c1)oc1c(NCc3ccc4c(c3)OCO4)ncnc12,inactive
17,O=C(O)CCc1nc2ccccc2n(CCc2ccccc2)c1=O,active: 200 nM
18,Cc1noc(C)c1CSc1nnc(-c2ccncc2)n1-c1ccc(Cl)c(Cl)c1,inconclusive: 1.1 nM
19,COc1ccc2nc(N3CCCC(O)C3)c(C#N)cc2c1 (centres undefined),active: 130 nM
20,Cn1c2c(c(=O)n(C)c1=O)CN(CCCN1CCOCC1)CN2,inconclusive: 3.6 nM
21,NC(=O)c1nc(N2CCOCC2)nc(N2CCOCC2)n1,inconclusive: 8.6 nM
22,COc1ccc(C2C(C(=O)NCc3ccccn3)c3ccccc3C(=O)N2C)cc1OC (centres undefined),inconclusive: 9.1 nM
23,COc1ncc2nc(-c3cc(F)cc(F)c3)c(=O)n(CCc3ccccc3)c2n1,inconclusive: 1.4 nM

row,Compound,max dye-equivalent concentration
1,COCc1cc(C)n(CC(=O)Nc2ccccc2C(=O)OC)c(=O)c1C#N,active: 34 nM
2,Nc1cc(N)nc(SCc2cccnc2)n1,inconclusive: 3 nM
3,CC1(C)CC(=O)c2sc(NS(C)(=O)=O)nc2C1,inconclusive: 1.8 nM
4,CCC(=O)OCc1cc2cccc(C)c2[nH]c1=O,inconclusive: 1.3 nM
5,COc1ccc(-c2nc3cnc(OC)nc3n(Cc3ccc(F)cc3)c2=O)cc1,active: 12 nM
6,C=CCN1C(=O)CN=C1Nc1cc(C)ccc1C,inactive
7,CC(=O)N1C2CCCCC2S[C@H]2CCCCC21 (some centres undefined),inconclusive: 8.6 nM
8,CC(C)Cn1c(N)c(C(=O)COC(=O)c2cc(-c3ccco3)nc3ccccc23)c(=O)n(C)c1=O,active: 12 nM
9,Oc1c(-c2cc(-c3ccco3)[nH]n2)ccc2ccccc12,inconclusive: 6.9 nM
10,COCCn1c(SCCN2CCCCC2)nc2ccccc2c1=O,inactive
11,CCCN(CCC)CCNC(=O)C1CCCN(S(=O)(=O)c2ccc3c(c2)oc(=O)n3C)C1 (centres undefined),inconclusive: 6.1 nM
12,CN(C)S(=O)(=O)n1cnc2ccccc21,active: 5000 nM
13,O=C(c1ccc(COc2c(F)c(F)cc(F)c2F)o1)N1CCN(c2ccc(Cl)cc2)CC1,inactive
14,CCN(Cc1cc2cc(C)ccc2[nH]c1=O)C(=O)c1cccc(OC)c1,inconclusive: 2 nM
15,COC(=O)c1ccccc1NC(=O)c1cncc(Br)c1,inactive
16,O=C(NCc1ccccn1)C1CCN(S(=O)(=O)c2cccs2)CC1,inconclusive: 1.6 nM
17,COCCCn1c(=NC(=O)c2ccc3c(c2)OCO3)c(C#N)cc2c(=O)n3cccc(C)c3nc21,active: 31 nM
18,CCCc1cc(=O)[nH]c(SCC(=O)NC(=O)c2ccccc2)n1,inconclusive: 4.3 nM
19,COc1ccc(-c2nnc3ccc(SCC(=O)N4CCN(c5ccccc5)CC4)nn23)cc1,active: 17 nM
20,CC[C@H](C)C(=O)O[C@@H]1CCC=C2C=C[C@H](C)[C@@H](CC[C@H]3C[C@@H](O)CC(=O)O3)[C@H]21,inconclusive: 9.7 nM
21,Cc1ccc(C(=O)NCc2occc2C(=O)O)o1,inconclusive: 8.6 nM
22,CN1CCN(c2ncc3ncc(=O)n(Cc4ccc(F)cc4)c3n2)CC1,inconclusive: 5.9 nM
23,Cc1cc(C(=O)CNCc2ccco2)c(C)n1-c1ccc(F)cc1,inconclusive: 3.4 nM

# Part of the list above in order of SMILES length, low to high:
row,Compound,max dye-equivalent concentration
6,C=CCN1C(=O)CN=C1Nc1cc(C)ccc1C,inactive
15,COC(=O)c1ccccc1NC(=O)c1cncc(Br)c1,inactive
9,Oc1c(-c2cc(-c3ccco3)[nH]n2)ccc2ccccc12,inconclusive: 6.9 nM
19,COc1ccc(-c2nnc3ccc(SCC(=O)N4CCN(c5ccccc5)CC4)nn23)cc1,active: 17 nM
17,COCCCn1c(=NC(=O)c2ccc3c(c2)OCO3)c(C#N)cc2c(=O)n3cccc(C)c3nc21,active: 31 nM

# Next part

row,Compound,max dye-equivalent concentration
1,COC(=O)c1ccccc1NC(=O)c1c(O)c2c([nH]c1=O)CCCC2,inconclusive: 1.4 nM
2,O=C(C1CCCCC1)N1CC(=O)N2CCc3ccccc3C2C1 (centres undefined),inconclusive: 1.5 nM
3,COc1ccc(NC(=O)N2CC3(CCN(C(=O)c4cc(C(F)(F)F)cc(C(F)(F)F)c4)CC3)C2)cc1,inactive
4,CCc1ccc2[nH]c(=O)c(CN(CCCN3CCOCC3)C(=O)Nc3ccc(Cl)cc3)cc2c1,inactive
5,COCc1cc(=O)n2c(-c3ccccc3OC)n[nH]c2n1,inconclusive: 1.2 nM
6,CCC(=O)Nc1nonc1-c1nc2ccccc2n1CC(C)C,inactive
7,COc1nc(-c2ccccc2)cc(-c2ccccc2)n1,inconclusive: 5.9 nM
8,CCN(CC)CCCN1C(=O)C(=O)/C(=C(/O)c2cnn(-c3ccccc3)c2C)C1c1ccncc1 (centres undefined),inconclusive: 1.9 nM
9,O=C(CSc1n[nH]c(-c2ccncc2)n1)NC1CCS(=O)(=O)C1 (centres undefined),active: 160 nM
10,CSc1nnc2n(C3CCCCC3)c(=O)c3c4c(sc3n12)CCCC4,inactive
11,C=CCn1c(=O)c(C(=O)NCCN(CC)CC)c(O)c2ccccc21,inconclusive: 1.2 nM
12,COC(=O)C1(C)NC(c2ccc(O)cc2)C2C(=O)N(c3ccc4c(c3)OCCO4)C(=O)C21 (centres undefined),inactive
13,Cc1cc(NC(=O)CCN2C(=O)c3ccccc3C2=O)no1,inconclusive: 4.2 nM
14,C=CCOC(=O)C(C#N)c1nc2ccccc2nc1N1CCN(Cc2ccccc2)CC1 (centres undefined),inconclusive: 3.1 nM
15,CC(C)CCn1c(SCC#N)nc2c(sc3ccccc32)c1=O,inconclusive: 8 nM
16,Nc1c(C(O)(C(F)(F)F)C(F)(F)F)ccc2ccccc12,active: 11 nM
17,COc1ccc(C(=O)n2nc(-c3ccccc3)nc2N)cc1OC,inconclusive: 8 nM
18,CCC(C)[C@H](NC(=O)NCc1cccs1)C(=O)OC (some centres undefined),inconclusive: 1.3 nM
19,COc1ccc(-c2cc3nc4n(c(=O)c3s2)CCC4)cc1,active: 490 nM
20,CCN1CCCC1CNC(=O)C1c2ccccc2C(=O)N(CCOC)C1c1ccc(F)cc1 (centres undefined),inconclusive: 1.1 nM
